Here are results for one substance from paper doi:10.1101/2025.02.13.638052.

By UniProt entry, the sequences of proteins in these tests, tags left out.
UniProt P32121: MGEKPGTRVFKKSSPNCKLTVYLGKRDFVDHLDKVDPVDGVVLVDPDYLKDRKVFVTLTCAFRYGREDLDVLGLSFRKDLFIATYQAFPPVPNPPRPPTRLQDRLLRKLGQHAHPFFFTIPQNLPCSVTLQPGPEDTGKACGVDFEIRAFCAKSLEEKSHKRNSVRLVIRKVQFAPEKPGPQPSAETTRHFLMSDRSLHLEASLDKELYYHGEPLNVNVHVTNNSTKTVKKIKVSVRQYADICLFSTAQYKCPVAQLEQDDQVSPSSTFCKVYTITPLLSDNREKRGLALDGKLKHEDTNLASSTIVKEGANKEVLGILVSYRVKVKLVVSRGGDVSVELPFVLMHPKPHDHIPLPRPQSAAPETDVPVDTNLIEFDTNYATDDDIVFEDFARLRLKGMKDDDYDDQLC

The assay addresses T1, human FSHR C-terminally fused to the luciferase from the sea pansy Renilla reniformis (FSHR-RLuc8) (human) (UniProt P23945).
T1 sequence: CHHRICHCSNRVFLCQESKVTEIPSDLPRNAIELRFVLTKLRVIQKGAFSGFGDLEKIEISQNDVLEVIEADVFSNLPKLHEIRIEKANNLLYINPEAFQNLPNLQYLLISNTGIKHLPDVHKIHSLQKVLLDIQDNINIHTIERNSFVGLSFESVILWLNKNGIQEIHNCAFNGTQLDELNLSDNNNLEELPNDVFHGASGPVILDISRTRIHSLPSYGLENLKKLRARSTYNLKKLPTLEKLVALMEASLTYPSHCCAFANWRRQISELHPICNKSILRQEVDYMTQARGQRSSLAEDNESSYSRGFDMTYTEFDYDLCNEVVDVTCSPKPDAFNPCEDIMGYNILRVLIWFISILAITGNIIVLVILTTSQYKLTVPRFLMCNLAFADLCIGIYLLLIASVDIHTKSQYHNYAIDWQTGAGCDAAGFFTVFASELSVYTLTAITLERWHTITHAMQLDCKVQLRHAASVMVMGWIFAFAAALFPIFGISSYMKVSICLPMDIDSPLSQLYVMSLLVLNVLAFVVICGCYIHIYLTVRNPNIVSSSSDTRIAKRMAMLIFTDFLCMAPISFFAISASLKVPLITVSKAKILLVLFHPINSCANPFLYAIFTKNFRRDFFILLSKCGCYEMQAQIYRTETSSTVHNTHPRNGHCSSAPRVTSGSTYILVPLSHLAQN
Description: FRET or BRET. A general note: Bioluminescence resonance energy transfer reports proximity on the nanometre scale.

No constants are given. Whether binding was seen depends on the method and setting. Binding seen in cells or lysates may run through a third protein. Some entries that bind do so weakly or less than the wild type. Tags and fused reporters may be left off the sequences shown.

In the case of “Ypet-β-arrestin 2 (from UniProt P32121 1-409)”, the binding entry is listed as “binds”.
